The name of at least one read-out is uncertain.
Test system: N87 cells
Assay: In Vivo Models - Inhibition of Tumor Growth, N87
Settings: 100 mg/kg, oral daily for 30 days, athymic mice
Protocol: In Vivo Models—Inhibition of Tumor Growth
The ability of test compounds to inhibit unregulated growth of human tumor cells in vivo was evaluated by implanting human tumor cells into the hindflank of athymic mice, administering a test compound and then quantifying any change in tumor size.
Human epidermoid A431 carcinoma, N87 cells and BT474 cells were implanted subcutaneously into the hindflank of female athymic mice (Charles River) and allowed to grow for 6-10 days. After a measurable tumor was established (as determined by baseline caliper measurement), the animal was administered an oral dose of the test compound daily for a period of 30 days. Tumor size was measured every five days and the degree of inhibition was determined by comparing drug-treated animals to vehicle-treated animals.
Variations of this method are intended to include intraperitoneal injection or intravenous infusion as the route of administration and administration of the test compound either alone or in a combination therapy.
The inhibition of tumor growth values are shown in Table 8 at various test concentrations, as indicated. For compounds with multiple values at one test concentration, each value represents a separate assay result.

SMILES | percent inhibition N87 [%]
COC1CCN(Cc2ccc(NC(=O)c3sc4ncnc5c4c3NC(=O)N5c3ccc(Oc4ccccc4)cc3)cc2)CC1 [Cpd 261, 4-oxo-5-(4-phenoxy-phenyl)-4,5-dihydro-3H-1-thia-3,5,6,8-tetraaza-acenaphthylene-2-carboxylic acid [4-(4-methoxy-piperidin-1-ylmethyl)-phenyl]-amide] | 82.3
O=C(Nc1ccc(CN2CCC(F)CC2)cc1)c1sc2ncnc3c2c1NC(=O)N3c1ccc(Oc2ccccc2)cc1 [Cpd 250, 4-oxo-5-(4-phenoxy-phenyl)-4,5-dihydro-3H-1-thia-3,5,6,8-tetraaza-acenaphthylene-2-carboxylic acid [4-(4-fluoro-piperidin-1-ylmethyl)-phenyl]-amide] | 66.7
